US8703143
No constants are given. Whether binding was seen depends on the method and setting. Binding can be weak; no strength is given.

Molecular target: rec FN 2-11 (B+) (human)
Test: immunoblot of recombinant FN proteins expressed in E. coli

B1: scFv CGS-1 (scFv, V domains shown)
VH: QVQLVESGGGLVQPGGSLRLSCAVSGFTFSSYAMSWVRQAPGKGLEWVSAISGSGGSTYYADSVKGRFTISRDNSKNTLYLQMNSLRAEDTAVYYCARSLPKWGQGTLVTVSR
VL: SSELTQDPAVSVALGQTVRITCQGDSLRSYYASWYQQKPGQAPVLVTYGKNNRPSGIPDRFSGSSSGNTASLTITGAQAEDEADYYCNSSPVVLNGVVFGGGTKLTVL
**Q.** B1 was tested. Which binding did it give?
**A.** The binding was “binds”.
